Measurements published in article PMC11237490.

Amino acid sequences for entries named in this document (tags omitted). A change or cut given only in a name is not applied to a line headed by its entry.
UniProt Q2G2N2: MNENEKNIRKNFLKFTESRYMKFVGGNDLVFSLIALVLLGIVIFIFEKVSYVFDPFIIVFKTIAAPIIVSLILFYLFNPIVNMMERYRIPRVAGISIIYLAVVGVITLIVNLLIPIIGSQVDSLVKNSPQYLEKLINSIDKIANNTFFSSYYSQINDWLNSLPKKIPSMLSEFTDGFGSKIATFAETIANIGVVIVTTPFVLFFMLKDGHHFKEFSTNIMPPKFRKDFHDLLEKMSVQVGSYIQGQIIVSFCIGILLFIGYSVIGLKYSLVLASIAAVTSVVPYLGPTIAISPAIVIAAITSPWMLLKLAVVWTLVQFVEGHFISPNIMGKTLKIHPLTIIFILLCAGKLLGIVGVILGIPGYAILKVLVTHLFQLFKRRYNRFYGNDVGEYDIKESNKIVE

Legend:
[1] = molecular target: T1, LtaA fused C-terminally to LgBit (S. aureus NCTC8325-4) (UniProt Q2FZP8); assay: split reporter; split luciferase in live S. aureus; CozE fused to SmBit and UgtP or LtaA fused to LgBit on one plasmid; 90 minutes at 37°C with 100 ng/mL anhydrotetracycline; Nano-Glo reagent, luminescence (460 nm) normalized to cell density
T1 sequence: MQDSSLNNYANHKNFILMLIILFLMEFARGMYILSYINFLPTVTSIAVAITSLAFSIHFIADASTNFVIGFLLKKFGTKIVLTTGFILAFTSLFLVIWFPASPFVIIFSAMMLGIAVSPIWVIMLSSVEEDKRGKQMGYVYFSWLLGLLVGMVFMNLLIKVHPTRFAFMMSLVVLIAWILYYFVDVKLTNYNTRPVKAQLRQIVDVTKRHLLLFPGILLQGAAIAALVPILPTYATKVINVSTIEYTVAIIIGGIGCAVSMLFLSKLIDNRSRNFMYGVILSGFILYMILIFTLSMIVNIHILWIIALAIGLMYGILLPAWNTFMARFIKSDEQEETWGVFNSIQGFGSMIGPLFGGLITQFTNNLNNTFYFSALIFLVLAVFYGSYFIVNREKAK

[2] = molecular target: T2, UgtP fused C-terminally to LgBit (S. aureus NCTC8325-4) (UniProt Q2FZP7); assay: as above
T2 sequence: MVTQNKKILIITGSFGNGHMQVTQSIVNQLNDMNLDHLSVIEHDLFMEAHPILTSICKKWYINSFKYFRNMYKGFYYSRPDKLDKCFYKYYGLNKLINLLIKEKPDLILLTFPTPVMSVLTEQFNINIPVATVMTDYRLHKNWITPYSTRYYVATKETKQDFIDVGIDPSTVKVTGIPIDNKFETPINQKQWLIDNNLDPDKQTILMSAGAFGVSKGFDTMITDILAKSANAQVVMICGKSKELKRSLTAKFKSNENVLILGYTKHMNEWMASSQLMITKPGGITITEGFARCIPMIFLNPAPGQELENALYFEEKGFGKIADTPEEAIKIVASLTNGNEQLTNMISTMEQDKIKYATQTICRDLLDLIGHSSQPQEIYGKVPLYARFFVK

Row | Substance | binding [1] | binding [2]
1 | CozEa fused C-terminally to SmBit (S. aureus NCTC8325-4) | binds | no binding
2 | CozEb fused C-terminally to SmBit (from UniProt Q2G2N2) | binds | no binding

These are yes or no findings as the source states them, for the method shown. In cells and extracts the contact can be indirect. For some of these results: Binding calls can cover weak binding; strength is not graded here. Sequences can lack the tags named with a protein.
